Data as given in PubChem BioAssay AID1224830 (NIAID, 2016)

- Purpose: 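Host factors that control LPS-induced TNF expression in human macrophages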 (primary screen)
- System: human THP-1 monocytic leukaemia cells, TNF dual-luciferase reporter clone, PMA-differentiated to macrophage-like cells
- Reagent: siRNA pool against human genes, 50 nM
- Timing: LPS for 4 h, given about 3 days after siRNA transfection
- Conditions: bacterial LPS (TLR4 ligand), 10 ng/ml
- Read-out: 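TNF firefly reporter luminescence divided by renilla, normalised to the plate median, then turned into a robust z-score for each replicate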
- Direction: TNF reporter robust z-score: higher = stronger TNF reporter response to LPS
- Active means: 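Each well counts as active if its z-score is over 2.8 or under -1.5; controls are left without a call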
Here is one part, drawn at random, of about 18,000 reagents tested. Over the whole deposit, about 2,900 (16%) are marked active. 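Calls are made per well; low scores hint the gene aids the LPS response, high scores that it dampens it.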 Unmarked entries are inactive. Repeated entries: four replicate wells of each siRNA pool.

MYO9A | TNF reporter robust z-score = 1.32
MYO9A | TNF reporter robust z-score = 0.71
MYO9A | TNF reporter robust z-score = 0.83
MYO9A | TNF reporter robust z-score = 1.23
ATP2B3 | TNF reporter robust z-score = -1.71 (active)
ATP2B3 | TNF reporter robust z-score = -0.73
ATP2B3 | TNF reporter robust z-score = -1.08
ATP2B3 | TNF reporter robust z-score = -0.55
BOLA2 | TNF reporter robust z-score = 0.26
BOLA2 | TNF reporter robust z-score = 2.18
BOLA2 | TNF reporter robust z-score = 0.38
BOLA2 | TNF reporter robust z-score = 0.23

2 entries from above, sorted by “TNF reporter robust z-score”, highest first:
BOLA2 | TNF reporter robust z-score = 2.18
BOLA2 | TNF reporter robust z-score = 0.26

Continued:
TEX30 | TNF reporter robust z-score = -0.03
TEX30 | TNF reporter robust z-score = -1.04
TEX30 | TNF reporter robust z-score = -1.25
TEX30 | TNF reporter robust z-score = -1.05
TEX30 | TNF reporter robust z-score = 2.45
TEX30 | TNF reporter robust z-score = 0.75
TEX30 | TNF reporter robust z-score = 1.07
TEX30 | TNF reporter robust z-score = -0.31
EXOSC2 | TNF reporter robust z-score = -0.72
EXOSC2 | TNF reporter robust z-score = -0.26
EXOSC2 | TNF reporter robust z-score = -0.46
EXOSC2 | TNF reporter robust z-score = 0.82
DDX18 | TNF reporter robust z-score = 0.64
DDX18 | TNF reporter robust z-score = 0.48
DDX18 | TNF reporter robust z-score = -0.85
DDX18 | TNF reporter robust z-score = 1.51
TUBA3E | TNF reporter robust z-score = 0.11
TUBA3E | TNF reporter robust z-score = -0.06
TUBA3E | TNF reporter robust z-score = -0.77
TUBA3E | TNF reporter robust z-score = -0.64
